According to article PMC8330100, “Similarities and differences in the localization, trafficking, and function of P-glycoprotein in MDR1-EGFP-transduced rat versus human brain capillary endothelial cell lines” (Fluids and Barriers of the CNS, 2021):

Tested on: RBE4-WT and RBE4-MDR1-EGFP cocultures
Test: Intracellular distribution of doxorubicin in RBE4-WT and -MDR1-EGFP cocultures (live-cell confocal imaging)
Type: cell-based, rat
Settings: doxorubicin 10 µM, 30 min

In the case of `COc1cccc2c1C(=O)c1c(O)c3c(c(O)c1C2=O)C[C@@](O)(C(=O)CO)C[C@@H]3O[C@H]1C[C@H](N)[C@H](O)[C@H](C)O1` [doxorubicin], the intracellular distribution (RBE4-MDR1-EGFP cells in coculture) is reported as “trapped in endolysosomal vesicles” and the intracellular distribution (RBE4-WT cells in coculture) is reported as “bound to cell nuclei”.
